Binding data for four substances are collected here from article PMC10015868.

Chains of the proteins cited; added tags and fusions are not shown. Lines headed by an entry give the natural chain unless they say otherwise; changes in a name come on top.
UniProt P19525: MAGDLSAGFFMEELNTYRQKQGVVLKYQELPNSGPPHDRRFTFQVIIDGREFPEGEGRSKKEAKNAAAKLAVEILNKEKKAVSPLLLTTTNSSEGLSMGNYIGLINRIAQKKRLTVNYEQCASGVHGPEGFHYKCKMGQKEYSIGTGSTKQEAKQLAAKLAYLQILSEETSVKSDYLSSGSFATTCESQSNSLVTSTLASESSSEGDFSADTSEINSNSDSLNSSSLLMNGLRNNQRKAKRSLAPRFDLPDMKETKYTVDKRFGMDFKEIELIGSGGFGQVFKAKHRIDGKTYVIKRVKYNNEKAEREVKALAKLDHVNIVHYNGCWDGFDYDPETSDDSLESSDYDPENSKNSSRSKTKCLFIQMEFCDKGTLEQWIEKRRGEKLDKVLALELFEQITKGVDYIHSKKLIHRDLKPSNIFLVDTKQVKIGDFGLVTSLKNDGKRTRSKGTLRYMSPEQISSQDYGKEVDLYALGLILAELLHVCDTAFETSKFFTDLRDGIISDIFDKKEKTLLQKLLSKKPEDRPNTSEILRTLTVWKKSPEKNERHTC
UniProt Q04206: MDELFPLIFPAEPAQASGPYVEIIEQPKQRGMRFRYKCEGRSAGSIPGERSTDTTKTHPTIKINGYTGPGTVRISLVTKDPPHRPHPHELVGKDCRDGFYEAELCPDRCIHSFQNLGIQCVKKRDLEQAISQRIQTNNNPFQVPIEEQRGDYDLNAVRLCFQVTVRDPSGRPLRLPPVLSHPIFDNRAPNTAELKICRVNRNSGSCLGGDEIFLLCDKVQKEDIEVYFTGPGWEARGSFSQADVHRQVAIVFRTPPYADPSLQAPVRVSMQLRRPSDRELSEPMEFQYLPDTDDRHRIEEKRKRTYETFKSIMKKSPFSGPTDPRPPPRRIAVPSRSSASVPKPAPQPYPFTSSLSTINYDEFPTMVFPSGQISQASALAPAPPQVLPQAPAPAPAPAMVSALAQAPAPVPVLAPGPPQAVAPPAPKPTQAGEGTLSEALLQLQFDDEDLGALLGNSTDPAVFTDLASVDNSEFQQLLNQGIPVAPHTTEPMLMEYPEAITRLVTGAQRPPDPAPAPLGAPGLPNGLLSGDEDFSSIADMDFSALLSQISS
UniProt P25963: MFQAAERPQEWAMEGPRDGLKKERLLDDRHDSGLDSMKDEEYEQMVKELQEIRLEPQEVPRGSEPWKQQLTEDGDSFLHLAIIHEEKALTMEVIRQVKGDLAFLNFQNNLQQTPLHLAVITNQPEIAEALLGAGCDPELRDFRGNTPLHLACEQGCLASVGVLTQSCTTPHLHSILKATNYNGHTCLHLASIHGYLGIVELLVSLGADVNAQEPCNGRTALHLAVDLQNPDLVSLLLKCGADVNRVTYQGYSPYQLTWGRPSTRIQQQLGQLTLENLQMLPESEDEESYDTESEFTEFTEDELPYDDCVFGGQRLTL

Experiment [1] concerns the target PKR‐Flag expressed in HEK293T cells (UniProt P19525). Briefly: co-IP; HEK293T cells transfected with tagged plasmids (in some panels with circWDR37 or forced PKR expression); lysed in coIP buffer, antibody at 4 °C overnight, beads 1 h at room temperature, washed ten times, western blot. (A western blot detects proteins with antibodies after separation by electrophoresis.)

The target of a further experiment is GST‐PKR (UniProt P19525). Briefly: pull-down; 20 µg purified GST-PKR or GST-PKR^T446DT451D on glutathione Sepharose 4B; lysate of transfected 293T cells added at 4 °C overnight; washed six times with NETN buffer (20 mM Tris-HCl pH 8.0, 100 mM NaCl, 1 mM EDTA, 0.5% NP-40); western blot; only the target purified.
In experiment [2] the target is double‐stranded RNA‐activated protein kinase R (PKR), endogenous in NPC cells (human (endogenous in HONE1 and S18)) (UniProt P19525). Put plainly: co-IP; endogenous proteins in HONE1 and S18 cells.

Results are given in words; binding and its absence hold for the method and conditions named. In cells and extracts the contact can be indirect. Some results given as binding are weak or reduced against the parent protein; the word gives no strength.

With “p65‐HA, full length (from UniProt Q04206 1-551)”, the binding result (in experiment [1]; with GST‐PKR) was “binds” in each case. As to “IκBα‐myc (NF‐κB inhibitor alpha) (from UniProt P25963 1-317)”, the binding result in experiment [1] is “binds”. Turning to “RELA (also known as p65), endogenous in NPC cells (from UniProt Q04206 1-551)”, the binding entry in experiment [2] was “binds”.

Turning to “p65‐RHD (Rel homology domain of p65), HA-tagged (from UniProt Q04206 19-306) (domain or fragment)”, the binding result in experiment [1] is on record as “binds”.
